Reference: PubChem BioAssay AID312 (DTP/NCI, 2004)
The list does not hold the whole screen: it gathers some chemical classes. Other doses and runs of a compound may be missing. T/C: endpoint of the treated group in % of that of the vehicle group. Where survival is the endpoint, this PubChem deposit counts one and a half times the control or more as active, and values a quarter to a half above the control carry no call in these data; other NCI protocols may use other cut-offs. Some entries show no survivor count and are marked so; the dose need not have been tolerated. Schedules are NCI's codes, taken here to give the interval after Q, in days (D) or hours (H), and the number of doses after X. Marks such as (2×) stand for listed records that agree. Some entries hold several experiments; the values are given in rising order.

Test system: BDF1 mice, C1498 leukemia ip, median survival T/C
Assay: NCI In Vivo Anticancer Drug Screen. Data for tumor model C1498 Myeloid Leukemia (intraperitoneal) in B6D2F1 (BDF1) mice
Conditions: T/C endpoint: median survival time, schedule: Q01DX010 (ip), vehicle: saline, higher T/C = longer survival
Protocol: The antitumor activity of compounds was measured in mice bearing transplantable tumors. Survival or tumor size were measured and the results are expressed as the measurement made in the treated group (T) divided by the measurement made in the vehicle treated control group (C). The tumor model used in this assay is C1498 Myeloid Leukemia (intraperitoneal) in B6D2F1 (BDF1) mice

ClCCNCCCl
T/C (dose: 18.8 mg/kg/injection): 104 [survivor count not shown] and 109 % of control [survivor count not shown]
T/C (dose: 37.5 mg/kg/injection): 136 % of control [survivor count not shown] (2×)
T/C (dose: 75.0 mg/kg/injection): 109 [survivor count not shown] and 118 % of control [survivor count not shown]

O=C(O)CN(CCCl)CCCl
T/C (dose: 0.63 mg/kg/injection): 113 % of control [survivor count not shown]
T/C (dose: 1.25 mg/kg/injection): 127 % of control [survivor count not shown]
T/C (dose: 2.5 mg/kg/injection): 136 % of control [survivor count not shown]
T/C (dose: 5.0 mg/kg/injection): 100 % of control [survivor count not shown]

NC1CCCCC1.NP(=O)(O)N(CCCl)CCCl
T/C (dose: 15.6 mg/kg/injection): 127 % of control [survivor count not shown]
T/C (dose: 31.3 mg/kg/injection): 168 % of control [survivor count not shown]
T/C (dose: 62.5 mg/kg/injection): 190 % of control [survivor count not shown]

ClCCN(CCCl)Cc1nc2ccccc2[nH]1
T/C (dose: 1.25 mg/kg/injection): 109 % of control [survivor count not shown] (2×)
T/C (dose: 2.5 mg/kg/injection): 127 [survivor count not shown] and 136 % of control [survivor count not shown]
T/C (dose: 5.0 mg/kg/injection): 145 [survivor count not shown] and 154 % of control [survivor count not shown]
T/C (dose: 10.0 mg/kg/injection): 104 [survivor count not shown] and 195 % of control [survivor count not shown]

CC(C(=O)O)N(CCCl)CCCl (configuration not stated)
T/C (dose: 0.5 mg/kg/injection): 127 % of control [survivor count not shown]
T/C (dose: 1.0 mg/kg/injection): 131 % of control [survivor count not shown]
T/C (dose: 2.0 mg/kg/injection): 154 % of control [survivor count not shown]
T/C (dose: 4.0 mg/kg/injection): 136 % of control [survivor count not shown]

NC(Cc1cccc(N(CCCl)CCCl)c1)C(=O)O (configuration not stated)
T/C (dose: 0.63 mg/kg/injection): 122 % of control [survivor count not shown]
T/C (dose: 1.25 mg/kg/injection): 127 [survivor count not shown] and 136 % of control [survivor count not shown]
T/C (dose: 2.5 mg/kg/injection): 140 [survivor count not shown] and 145 % of control [survivor count not shown]
T/C (dose: 5.0 mg/kg/injection): 131 [survivor count not shown] and 140 % of control [survivor count not shown]
